Reference: article PMC9920513

Chains of the proteins cited; added tags and fusions are not shown. Residues count along the entry.
UniProt P02769, 25-607: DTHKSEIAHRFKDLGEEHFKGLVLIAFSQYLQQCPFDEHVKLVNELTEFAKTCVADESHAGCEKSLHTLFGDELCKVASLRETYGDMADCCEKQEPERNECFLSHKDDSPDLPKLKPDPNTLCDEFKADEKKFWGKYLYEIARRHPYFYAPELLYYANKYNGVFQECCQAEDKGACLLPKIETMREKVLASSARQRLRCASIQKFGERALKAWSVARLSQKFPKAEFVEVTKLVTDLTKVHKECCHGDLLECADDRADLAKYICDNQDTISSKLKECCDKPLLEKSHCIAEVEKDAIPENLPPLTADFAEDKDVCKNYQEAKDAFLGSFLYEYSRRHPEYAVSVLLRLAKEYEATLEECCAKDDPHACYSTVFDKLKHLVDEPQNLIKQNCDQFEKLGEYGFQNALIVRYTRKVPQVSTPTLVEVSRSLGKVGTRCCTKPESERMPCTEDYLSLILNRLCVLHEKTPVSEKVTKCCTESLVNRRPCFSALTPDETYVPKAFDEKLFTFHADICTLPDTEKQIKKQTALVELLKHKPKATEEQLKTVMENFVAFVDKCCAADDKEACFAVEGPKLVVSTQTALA

Experiments:
BSA = BSA (UniProt P02769); experiment: fluorescent aptamer sensor (amplified, indirect); details: 1 ng/mL, primer-3, KF, Nb.BbvCI, MB, Mg2+, 100 nM H probe, 100 nM primer-3, 5 U KF, 5 U Nb.BbvCI, 25 uM dNTPs, 37 C 60 min, then HEPES detection buffer with 300 nM MB and 20 mM Mg2+, pH and salt not given, folded or branched DNA
HSA = HSA (UniProt P02768); experiment: fluorescent aptamer sensor (amplified, indirect); details: 1 ng/mL, primer-3, KF, Nb.BbvCI, MB, Mg2+, 100 nM H probe, 100 nM primer-3, 5 U KF, 5 U Nb.BbvCI, 25 uM dNTPs, 37 C 60 min, then HEPES detection buffer with 300 nM MB and 20 mM Mg2+, pH and salt not given, folded or branched DNA

“ATGCTTGGTACATGGGTGATCGCTGTCGGTATTCCTCAGCCAATACCAGCTTATTCAATTCCAGCTCCTCAGCGTATACTGGAATTGAATC [H probe (CEA aptamer hairpin)]”: no binding (BSA); no binding (HSA).

A negative result means that nothing was seen under these conditions.
